In patent US20250223378A1 (MABCARE THERAPEUTICS, published 2025):
Results are given in words; binding and its absence hold for the method and conditions named. Some results given as binding are weak or reduced against the parent protein; the word gives no strength.

T1: PTK7 on the SK-OV-3 cell line (human ovarian cancer cells) (human) (UniProt Q13308)
T1 sequence (looked up): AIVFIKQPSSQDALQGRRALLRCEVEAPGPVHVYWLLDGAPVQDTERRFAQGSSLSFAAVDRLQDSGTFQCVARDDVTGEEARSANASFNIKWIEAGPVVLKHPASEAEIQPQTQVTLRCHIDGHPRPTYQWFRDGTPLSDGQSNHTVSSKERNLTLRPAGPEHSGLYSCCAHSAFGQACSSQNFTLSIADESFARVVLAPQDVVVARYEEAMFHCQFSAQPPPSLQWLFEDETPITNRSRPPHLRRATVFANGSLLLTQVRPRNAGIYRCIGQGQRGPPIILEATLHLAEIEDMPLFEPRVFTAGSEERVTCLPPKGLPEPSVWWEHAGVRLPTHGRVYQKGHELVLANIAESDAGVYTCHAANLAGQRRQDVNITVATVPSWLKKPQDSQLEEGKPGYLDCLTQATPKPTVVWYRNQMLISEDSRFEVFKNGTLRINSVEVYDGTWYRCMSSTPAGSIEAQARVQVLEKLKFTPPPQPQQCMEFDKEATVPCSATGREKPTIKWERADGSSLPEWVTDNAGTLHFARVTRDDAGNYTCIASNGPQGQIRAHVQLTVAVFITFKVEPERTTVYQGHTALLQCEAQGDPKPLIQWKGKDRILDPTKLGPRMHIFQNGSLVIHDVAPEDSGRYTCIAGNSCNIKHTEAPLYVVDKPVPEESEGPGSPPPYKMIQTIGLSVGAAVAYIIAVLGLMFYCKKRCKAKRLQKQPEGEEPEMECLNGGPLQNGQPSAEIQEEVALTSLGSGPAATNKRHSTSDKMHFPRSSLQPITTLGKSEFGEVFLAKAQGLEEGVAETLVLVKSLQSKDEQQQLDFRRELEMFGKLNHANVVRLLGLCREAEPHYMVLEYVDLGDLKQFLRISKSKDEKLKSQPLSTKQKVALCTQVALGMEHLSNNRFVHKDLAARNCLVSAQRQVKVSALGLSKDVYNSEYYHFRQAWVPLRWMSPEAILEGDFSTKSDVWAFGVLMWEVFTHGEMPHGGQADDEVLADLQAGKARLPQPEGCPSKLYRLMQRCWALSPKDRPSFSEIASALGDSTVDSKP


The binders below were run against T1, PTK7 on the SK-OV-3 cell line (human ovarian cancer cells) (human) (assay: flow cytometry on SK-OV-3 cells).

Row | binding | Binder
1 | binds | humanized PTK7 antibody Hu13H3L3 (antibody, V domains shown) VH: QVQLVQSGAEVKKPGASVKISCKGSGYTFTDYGMHWLKQAPGQGLEWIGVISPYYGDVNYNQKFQGRATMTVDKSISTAYMELSRLRSDDTAVYYCARGMGYWGQGTLVTVSS VL: DVQITQSPSFLSASVGDRVTITCRASQSISKYLAWYQQKPGKAPKLLIYSGSTLQSGVPSRFSGSGSGTEFTLTISSLQPEDFAMYYCQQHNEYPWTFGQGTKVEIK
2 | binds | humanized PTK7 antibody Hu13H3L0 (Ab13) (antibody, V domains shown) VH: QVQLVQSGAEVKKPGASVKISCKGSGYTFTDYGMHWLKQAPGQGLEWIGVISPYYGDVNYNQKFQGRATMTVDKSISTAYMELSRLRSDDTAVYYCARGMGYWGQGTLVTVSS VL: DIQLTQSPSFLSASVGDRVTITCRASQSISKYLAWYQQKPGKAPKLLIYSGSTLQSGVPSRFSGSGSGTEFTLTISSLQPEDFATYYCQQHNEYPWTFGQGTKVEIK
3 | binds | humanized PTK7 antibody Hu13H2L3 (antibody, V domains shown) VH: QVQLVQSGAEVKKPGASVKVSCKGSGYTFTDYGMHWLRQAPGQGLEWMGVISPYYGDVNYNQKFQGRVTMTRDKSISTAYMELSRLRSDDTVVYYCARGMGYWGQGTLVTVSS VL: DVQITQSPSFLSASVGDRVTITCRASQSISKYLAWYQQKPGKAPKLLIYSGSTLQSGVPSRFSGSGSGTEFTLTISSLQPEDFAMYYCQQHNEYPWTFGQGTKVEIK
4 | binds | humanized PTK7 antibody Hu13H3L5 (antibody, V domains shown) VH: QVQLVQSGAEVKKPGASVKISCKGSGYTFTDYGMHWLKQAPGQGLEWIGVISPYYGDVNYNQKFQGRATMTVDKSISTAYMELSRLRSDDTAVYYCARGMGYWGQGTLVTVSS VL: DVQITQSPSYLSASPGDRITITCRASQSISKYLAWYQQKPGKANKLLIYSGSTLQSGVPSRFSGSGSGTEFTLTISSLQPEDFAMYYCQQHNEYPWTFGQGTKVEIK
5 | binds | humanized PTK7 antibody Hu13H2L0 (antibody, V domains shown) VH: QVQLVQSGAEVKKPGASVKVSCKGSGYTFTDYGMHWLRQAPGQGLEWMGVISPYYGDVNYNQKFQGRVTMTRDKSISTAYMELSRLRSDDTVVYYCARGMGYWGQGTLVTVSS VL: DIQLTQSPSFLSASVGDRVTITCRASQSISKYLAWYQQKPGKAPKLLIYSGSTLQSGVPSRFSGSGSGTEFTLTISSLQPEDFATYYCQQHNEYPWTFGQGTKVEIK
6 | binds | human-murine chimeric PTK7 antibody ch13 (antibody, V domains shown) VH: QVQLQQSGAELVRPGVSVKISCKGSGYTFTDYGMHWLKQSHAKSLEWIGVISPYYGDVTYNQKFKGKATMTVDKSSSTAYMELARLTSEDSAIYYCARGMGYWGQGTSVTVSS VL: DVQITQSPSYLAASPGETITINCRASQSISKYLAWYQEKPGKTNKLLIYSGSTLQSGIPSRFSGSGSGTDFTLTISSLEPEDFAMYYCQQHNEYPWTFGGGTKLEIK

Each binder was assayed against monkey PTK7 protein (Catalog No. PT7-C52H3, Acrobiosystems) (monkey) (assay: ELISA, PTK7 protein immobilized on the plate).

Row | binding | Binder
7 | binds | human-murine chimeric PTK7 antibody ch13 (antibody, V domains shown) VH: QVQLQQSGAELVRPGVSVKISCKGSGYTFTDYGMHWLKQSHAKSLEWIGVISPYYGDVTYNQKFKGKATMTVDKSSSTAYMELARLTSEDSAIYYCARGMGYWGQGTSVTVSS VL: DVQITQSPSYLAASPGETITINCRASQSISKYLAWYQEKPGKTNKLLIYSGSTLQSGIPSRFSGSGSGTDFTLTISSLEPEDFAMYYCQQHNEYPWTFGGGTKLEIK
